PubChem BioAssay AID1259425, University of Nebraska Medical Center | 2018

- Assay: 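Find knockdowns that reproduce the gene expression pattern seen when KSR1 is lost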 (primary screen)
- Cells: HCT116 human colon cancer cells
- Knock-down reagent: siRNA pool against human genes, 50 nM siRNA
- Measurement: 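After 50 nM siRNA pool, branched-DNA assay measures six marker transcripts per well, minus blank, normalised to the geometric mean of two housekeeping transcripts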
- Reading the numbers: BNIP3L mRNA: higher = more BNIP3L transcript after knockdown; NDRG1 mRNA: higher = more NDRG1 transcript after knockdown
The deposit covers about 14,000 reagents; shown is an unselected part. Not all columns of the deposit are shown. No sequences are given here. The record does not give: the time to read-out.

For AGMAT (GeneID 79814), how do the results read?
BNIP3L mRNA, set 1: 0.13; NDRG1 mRNA, set 1: 0.361

For MYH7 (GeneID 4625), what was measured?
BNIP3L mRNA, set 1: 0.0887; NDRG1 mRNA, set 1: 0.117

With SLC25A28 (GeneID 81894), what was measured?
BNIP3L mRNA, set 1: 0.135; NDRG1 mRNA, set 1: 0.204

What is on record for PYCR2 (GeneID 29920)?
BNIP3L mRNA, set 1: 0.0458; NDRG1 mRNA, set 1: 0.151

For FMR1 (GeneID 2332), how do the results read?
BNIP3L mRNA, set 1: 0.12; NDRG1 mRNA, set 1: 0.0296

What is on record for YJU2 (GeneID 55702)?
BNIP3L mRNA, set 1: 0.14; NDRG1 mRNA, set 1: 0.272

For MGAM (GeneID 8972), how do the results read?
BNIP3L mRNA, set 1: 0.151; NDRG1 mRNA, set 1: 0.177

With ING4 (GeneID 51147), how do the results read?
BNIP3L mRNA, set 1: 0.106; NDRG1 mRNA, set 1: 0.354

With TUBA1B (GeneID 10376), what was measured?
BNIP3L mRNA, set 1: 0.16; NDRG1 mRNA, set 1: 0.626

For SERPINB8 (GeneID 5271), what does the deposit list?
BNIP3L mRNA, set 1: 0.0993; NDRG1 mRNA, set 1: 0.0521

Which result is listed for SLC30A4 (GeneID 7782)?
BNIP3L mRNA, set 1: 0.0692; NDRG1 mRNA, set 1: 0.146

For CFAP44 (GeneID 55779), how do the results read?
BNIP3L mRNA, set 1: 0.0985; NDRG1 mRNA, set 1: 0.2

What is on record for PTPRB (GeneID 5787)?
BNIP3L mRNA, set 1: 0.112; NDRG1 mRNA, set 1: 0.0825

What did the screen give for PIGP (GeneID 51227)?
BNIP3L mRNA, set 1: 0.092; NDRG1 mRNA, set 1: 0.18

How did the screen score RRM2 (GeneID 6241)?
BNIP3L mRNA, set 1: 0.184; NDRG1 mRNA, set 1: 1.15

Quoted from the entries so far (2 entries):
TUBA1B (GeneID 10376) — BNIP3L mRNA, set 1 = 0.16; NDRG1 mRNA, set 1 = 0.626
SERPINB8 (GeneID 5271) — BNIP3L mRNA, set 1 = 0.0993; NDRG1 mRNA, set 1 = 0.0521

Next reagents:
With RIOX1 (GeneID 79697), how do the results read?
BNIP3L mRNA, set 1: 0.245; NDRG1 mRNA, set 1: 0.164

With DIP2A (GeneID 23181), what was measured?
BNIP3L mRNA, set 1: 0.226; NDRG1 mRNA, set 1: 0.188

For DYRK3 (GeneID 8444), what does the deposit list?
BNIP3L mRNA, set 1: 0.0381; NDRG1 mRNA, set 1: 0.0787

For KAT6A (GeneID 7994), how do the results read?
BNIP3L mRNA, set 1: 0.0665; NDRG1 mRNA, set 1: 0.0929

With SSBP2 (GeneID 23635), what does the deposit list?
BNIP3L mRNA, set 1: 0.121; NDRG1 mRNA, set 1: 0.148

For HLA-DRB3 (GeneID 3125), how do the results read?
BNIP3L mRNA, set 1: 0.0596; NDRG1 mRNA, set 1: 0.148

What did the screen give for P2RY4 (GeneID 5030)?
BNIP3L mRNA, set 1: 0.212; NDRG1 mRNA, set 1: 0.518

What is on record for TNRC6B (GeneID 23112)?
BNIP3L mRNA, set 1: 0.0552; NDRG1 mRNA, set 1: 0.282

For FPGT (GeneID 8790), what does the deposit list?
BNIP3L mRNA, set 1: 0.116; NDRG1 mRNA, set 1: 0.695

What did the screen give for KDM3A (GeneID 55818)?
BNIP3L mRNA, set 1: 0.0677; NDRG1 mRNA, set 1: 0.353

For TERF2IP (GeneID 54386), how do the results read?
BNIP3L mRNA, set 1: 0.0374; NDRG1 mRNA, set 1: 0.0581

Which result is listed for PBX3 (GeneID 5090)?
BNIP3L mRNA, set 1: 0.0774; NDRG1 mRNA, set 1: 0.193

For CRBN (GeneID 51185), what does the deposit list?
BNIP3L mRNA, set 1: 0.153; NDRG1 mRNA, set 1: 0.236

What did the screen give for FGF16 (GeneID 8823)?
BNIP3L mRNA, set 1: 0.0755; NDRG1 mRNA, set 1: 0.159

With ANKRD13C (GeneID 81573), what was measured?
BNIP3L mRNA, set 1: 0.103; NDRG1 mRNA, set 1: 0.132

What is on record for PLCB2 (GeneID 5330)?
BNIP3L mRNA, set 1: 0.187; NDRG1 mRNA, set 1: 0.116

For ZNF395 (GeneID 55893), how do the results read?
BNIP3L mRNA, set 1: 0.193; NDRG1 mRNA, set 1: 0.126

What is on record for APOLD1 (GeneID 81575)?
BNIP3L mRNA, set 1: 0.0362; NDRG1 mRNA, set 1: 0.334

For GSTA2 (GeneID 2939), what does the deposit list?
BNIP3L mRNA, set 1: 0.178; NDRG1 mRNA, set 1: 0.236

How did the screen score NLRC4 (GeneID 58484)?
BNIP3L mRNA, set 1: 0.241; NDRG1 mRNA, set 1: 0.166

Which result is listed for LRP2BP (GeneID 55805)?
BNIP3L mRNA, set 1: 0.347; NDRG1 mRNA, set 1: 0.31
